Source: PMC9703712
Results are given in words; binding and its absence hold for the method and conditions named. Binding seen in cells or lysates may run through a third protein. Some binding calls cover weakened binding; strength is not graded here. For part of these data: Tags and fused reporters may be left off the sequences shown.

Key:
Flag-PTRF (human) [1] = target: T1, Flag-PTRF (human) (UniProt Q6NZI2); assay: co-IP; HEK293T cells co-transfected (PEI); lysed in WCE lysis buffer (10% glycerol, 150 mM NaCl, 50 mM Tris-HCl pH 8.0, 0.5% NP40); Flag M2 beads, 4 °C, 1.5 h; western blot
T1 sequence: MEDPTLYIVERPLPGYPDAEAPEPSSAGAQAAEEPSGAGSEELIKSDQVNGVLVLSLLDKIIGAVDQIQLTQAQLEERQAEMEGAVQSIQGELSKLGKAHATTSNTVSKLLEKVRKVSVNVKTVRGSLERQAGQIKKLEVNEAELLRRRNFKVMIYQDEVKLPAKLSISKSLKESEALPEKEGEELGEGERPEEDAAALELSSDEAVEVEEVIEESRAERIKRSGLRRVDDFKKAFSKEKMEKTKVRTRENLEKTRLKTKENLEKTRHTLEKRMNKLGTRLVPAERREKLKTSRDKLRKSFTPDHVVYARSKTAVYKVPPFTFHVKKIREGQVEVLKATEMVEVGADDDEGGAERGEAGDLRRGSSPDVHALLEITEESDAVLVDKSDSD

[2] = target: T2, endogenous PTRF (human (endogenous in HeLa, U-2 OS, U251)) (UniProt Q6NZI2); assay: co-IP; endogenous; U251 cells, a PTRF high cell line (Figure S1C); precipitating antibody not given
T2 sequence: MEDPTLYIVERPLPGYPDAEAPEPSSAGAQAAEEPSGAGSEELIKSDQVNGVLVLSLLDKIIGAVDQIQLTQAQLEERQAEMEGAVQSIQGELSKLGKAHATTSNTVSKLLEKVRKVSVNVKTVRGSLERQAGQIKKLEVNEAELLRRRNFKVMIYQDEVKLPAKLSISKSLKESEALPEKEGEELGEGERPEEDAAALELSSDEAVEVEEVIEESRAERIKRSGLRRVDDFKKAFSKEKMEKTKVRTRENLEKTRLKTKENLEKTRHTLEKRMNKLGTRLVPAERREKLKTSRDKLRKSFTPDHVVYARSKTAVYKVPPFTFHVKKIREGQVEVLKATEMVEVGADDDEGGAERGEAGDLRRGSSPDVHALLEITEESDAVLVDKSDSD

[3] = target: T2, endogenous PTRF (human (endogenous in HeLa, U-2 OS, U251)); assay: co-IP; endogenous; U-2 OS cells (Figure S1B); precipitating antibody not given
Flag-SDPR (human) = target: T3, Flag-SDPR (human) (UniProt O95810); assay: co-IP; semi-endogenous; HeLa cells expressing the Flag-tagged bait, Flag M2 beads, endogenous partner detected by western blot; for PTRF with SDPR with or without overexpressed UBE2O-Myc
T3 sequence: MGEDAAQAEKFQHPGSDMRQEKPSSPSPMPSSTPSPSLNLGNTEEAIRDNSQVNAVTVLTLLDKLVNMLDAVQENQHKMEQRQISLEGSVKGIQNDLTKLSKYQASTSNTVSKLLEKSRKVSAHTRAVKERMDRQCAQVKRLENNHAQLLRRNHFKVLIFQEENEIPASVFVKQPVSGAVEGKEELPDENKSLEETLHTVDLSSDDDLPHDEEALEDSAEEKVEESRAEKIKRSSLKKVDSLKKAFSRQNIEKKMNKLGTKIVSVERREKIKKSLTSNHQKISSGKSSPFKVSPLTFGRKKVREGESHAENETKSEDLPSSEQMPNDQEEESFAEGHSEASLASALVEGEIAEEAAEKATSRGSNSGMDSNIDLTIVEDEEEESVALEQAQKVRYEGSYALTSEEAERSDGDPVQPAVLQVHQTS

Flag-PTRF (human) [4] = target: T1, Flag-PTRF (human); assay: as above
[5] = target: T2, endogenous PTRF (human (endogenous in HeLa, U-2 OS, U251)); assay: co-IP; endogenous; HeLa lysate with PTRF antibody overnight, protein A resin 2 h; western blot

Measured: binding

B1: UBE2O-Myc (enzyme, UniProt Q9C0C9 1-1292)
chain: MADPAAPTPAAPAPAQAPAPAPEAVPAPAAAPVPAPAPASDSASGPSSDSGPEAGSQRLLFSHDLVSGRYRGSVHFGLVRLIHGEDSDSEGEEEGRGSSGCSEAGGAGHEEGRASPLRRGYVRVQWYPEGVKQHVKETKLKLEDRSVVPRDVVRHMRSTDSQCGTVIDVNIDCAVKLIGTNCIIYPVNSKDLQHIWPFMYGDYIAYDCWLGKVYDLKNQIILKLSNGARCSMNTEDGAKLYDVCPHVSDSGLFFDDSYGFYPGQVLIGPAKIFSSVQWLSGVKPVLSTKSKFRVVVEEVQVVELKVTWITKSFCPGGTDSVSPPPSVITQENLGRVKRLGCFDHAQRQLGERCLYVFPAKVEPAKIAWECPEKNCAQGEGSMAKKVKRLLKKQVVRIMSCSPDTQCSRDHSMEDPDKKGESKTKSEAESASPEETPDGSASPVEMQDEGAEEPHEAGEQLPPFLLKEGRDDRLHSAEQDADDEAADDTDDTSSVTSSASSTTSSQSGSGTSRKKSIPLSIKNLKRKHKRKKNKITRDFKPGDRVAVEVVTTMTSADVMWQDGSVECNIRSNDLFPVHHLDNNEFCPGDFVVDKRVQSCPDPAVYGVVQSGDHIGRTCMVKWFKLRPSGDDVELIGEEEDVSVYDIADHPDFRFRTTDIVIRIGNTEDGAPHKEDEPSVGQVARVDVSSKVEVVWADNSKTIILPQHLYNIESEIEESDYDSVEGSTSGASSDEWEDDSDSWETDNGLVEDEHPKIEEPPIPPLEQPVAPEDKGVVISEEAATAAVQGAVAMAAPMAGLMEKAGKDGPPKSFRELKEAIKILESLKNMTVEQLLTGSPTSPTVEPEKPTREKKFLDDIKKLQENLKKTLDNVAIVEEEKMEAVPDVERKEDKPEGQSPVKAEWPSETPVLCQQCGGKPGVTFTSAKGEVFSVLEFAPSNHSFKKIEFQPPEAKKFFSTVRKEMALLATSLPEGIMVKTFEDRMDLFSALIKGPTRTPYEDGLYLFDIQLPNIYPAVPPHFCYLSQCSGRLNPNLYDNGKVCVSLLGTWIGKGTERWTSKSSLLQVLISIQGLILVNEPYYNEAGFDSDRGLQEGYENSRCYNEMALIRVVQSMTQLVRRPPEVFEQEIRQHFSTGGWRLVNRIESWLETHALLEKAQALPNGVPKASSSPEPPAVAELSDSGQQEPEDGGPAPGEASQGSDSEGGAQGLASASRDHTDQTSETAPDASVPPSVKPKKRRKSYRSFLPEKSGYPDIGFPLFPLSKGFIKSIRGVLTQFRAALLEAGMPECTEDK
binds: Flag-PTRF (human) [1]

B2: endogenous UBE2O (enzyme, UniProt Q9C0C9 1-1292)
chain: MADPAAPTPAAPAPAQAPAPAPEAVPAPAAAPVPAPAPASDSASGPSSDSGPEAGSQRLLFSHDLVSGRYRGSVHFGLVRLIHGEDSDSEGEEEGRGSSGCSEAGGAGHEEGRASPLRRGYVRVQWYPEGVKQHVKETKLKLEDRSVVPRDVVRHMRSTDSQCGTVIDVNIDCAVKLIGTNCIIYPVNSKDLQHIWPFMYGDYIAYDCWLGKVYDLKNQIILKLSNGARCSMNTEDGAKLYDVCPHVSDSGLFFDDSYGFYPGQVLIGPAKIFSSVQWLSGVKPVLSTKSKFRVVVEEVQVVELKVTWITKSFCPGGTDSVSPPPSVITQENLGRVKRLGCFDHAQRQLGERCLYVFPAKVEPAKIAWECPEKNCAQGEGSMAKKVKRLLKKQVVRIMSCSPDTQCSRDHSMEDPDKKGESKTKSEAESASPEETPDGSASPVEMQDEGAEEPHEAGEQLPPFLLKEGRDDRLHSAEQDADDEAADDTDDTSSVTSSASSTTSSQSGSGTSRKKSIPLSIKNLKRKHKRKKNKITRDFKPGDRVAVEVVTTMTSADVMWQDGSVECNIRSNDLFPVHHLDNNEFCPGDFVVDKRVQSCPDPAVYGVVQSGDHIGRTCMVKWFKLRPSGDDVELIGEEEDVSVYDIADHPDFRFRTTDIVIRIGNTEDGAPHKEDEPSVGQVARVDVSSKVEVVWADNSKTIILPQHLYNIESEIEESDYDSVEGSTSGASSDEWEDDSDSWETDNGLVEDEHPKIEEPPIPPLEQPVAPEDKGVVISEEAATAAVQGAVAMAAPMAGLMEKAGKDGPPKSFRELKEAIKILESLKNMTVEQLLTGSPTSPTVEPEKPTREKKFLDDIKKLQENLKKTLDNVAIVEEEKMEAVPDVERKEDKPEGQSPVKAEWPSETPVLCQQCGGKPGVTFTSAKGEVFSVLEFAPSNHSFKKIEFQPPEAKKFFSTVRKEMALLATSLPEGIMVKTFEDRMDLFSALIKGPTRTPYEDGLYLFDIQLPNIYPAVPPHFCYLSQCSGRLNPNLYDNGKVCVSLLGTWIGKGTERWTSKSSLLQVLISIQGLILVNEPYYNEAGFDSDRGLQEGYENSRCYNEMALIRVVQSMTQLVRRPPEVFEQEIRQHFSTGGWRLVNRIESWLETHALLEKAQALPNGVPKASSSPEPPAVAELSDSGQQEPEDGGPAPGEASQGSDSEGGAQGLASASRDHTDQTSETAPDASVPPSVKPKKRRKSYRSFLPEKSGYPDIGFPLFPLSKGFIKSIRGVLTQFRAALLEAGMPECTEDK
not listed: Flag-PTRF (human) [1]
binds: all other assays above
